Paper PMC4793078
No constants are given. Whether binding was seen depends on the method and setting. For some assays here: Binding seen in cells or lysates may run through a third protein. Some entries that bind do so weakly or less than the wild type. For some assays here: Sequences can lack the tags named with a protein.

Columns and labels:
[1] = molecular target: T1, necdin (mouse (endogenous in E14.5 forebrain)) (UniProt P25233); assay: co-IP; lysates of E14.5 mouse forebrain (1 mg) incubated with guinea pig anti-necdin antibody GN1 (1:100), pelleted with Protein A-Sepharose, western blotting; controls: preimmune IgG, necdin-null extracts
T1 sequence: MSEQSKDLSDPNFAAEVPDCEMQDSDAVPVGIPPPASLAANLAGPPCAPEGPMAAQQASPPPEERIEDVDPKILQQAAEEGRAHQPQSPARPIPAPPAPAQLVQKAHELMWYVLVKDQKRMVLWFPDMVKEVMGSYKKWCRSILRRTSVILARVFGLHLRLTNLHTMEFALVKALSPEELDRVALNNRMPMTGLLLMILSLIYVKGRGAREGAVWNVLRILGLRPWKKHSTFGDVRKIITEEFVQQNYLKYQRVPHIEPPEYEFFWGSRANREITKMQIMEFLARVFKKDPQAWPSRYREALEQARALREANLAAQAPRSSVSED

[2] = molecular target: T2, necdin (expressed in transfected HEK293A cells) (not stated (human or mouse cDNA cloned)) (UniProt P25233); assay: co-IP; HEK293A cells transfected with expression vectors, collected after 24 h; lysates (200 μg) incubated with antibodies at 4 °C for 2 h, Protein A-Sepharose, western blotting
T2 sequence: T1 sequence

[3] = molecular target: T3, PGC-1α, full-length mouse (expressed in transfected HEK293A cells) (mouse) (UniProt O70343); assay: as above
T3 sequence: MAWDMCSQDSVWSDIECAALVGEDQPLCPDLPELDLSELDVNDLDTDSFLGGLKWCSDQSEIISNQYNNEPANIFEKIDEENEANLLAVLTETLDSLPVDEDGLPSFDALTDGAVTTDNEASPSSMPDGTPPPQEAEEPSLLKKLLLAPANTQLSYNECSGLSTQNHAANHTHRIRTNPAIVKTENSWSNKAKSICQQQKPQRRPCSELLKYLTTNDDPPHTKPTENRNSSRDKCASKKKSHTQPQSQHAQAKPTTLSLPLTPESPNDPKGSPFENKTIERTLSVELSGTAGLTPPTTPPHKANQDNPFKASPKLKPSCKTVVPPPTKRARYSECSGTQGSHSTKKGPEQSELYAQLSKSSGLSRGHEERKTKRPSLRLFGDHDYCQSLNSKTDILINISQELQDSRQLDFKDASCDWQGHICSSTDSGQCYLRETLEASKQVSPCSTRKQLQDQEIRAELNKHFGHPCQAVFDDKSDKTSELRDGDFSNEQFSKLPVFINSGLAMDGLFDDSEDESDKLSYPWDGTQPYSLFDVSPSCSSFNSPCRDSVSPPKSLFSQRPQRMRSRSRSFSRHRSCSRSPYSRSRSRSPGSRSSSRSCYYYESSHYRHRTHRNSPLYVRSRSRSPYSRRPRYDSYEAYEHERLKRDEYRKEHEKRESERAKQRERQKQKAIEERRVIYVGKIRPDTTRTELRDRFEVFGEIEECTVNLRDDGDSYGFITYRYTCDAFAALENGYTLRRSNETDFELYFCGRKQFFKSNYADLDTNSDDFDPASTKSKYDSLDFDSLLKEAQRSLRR

[4] = molecular target: T4, 6Myc-tagged PGC-1α deletion mutant, amino acids 1-200 (N-terminal) (mouse) (UniProt O70343); assay: as above
T4 sequence: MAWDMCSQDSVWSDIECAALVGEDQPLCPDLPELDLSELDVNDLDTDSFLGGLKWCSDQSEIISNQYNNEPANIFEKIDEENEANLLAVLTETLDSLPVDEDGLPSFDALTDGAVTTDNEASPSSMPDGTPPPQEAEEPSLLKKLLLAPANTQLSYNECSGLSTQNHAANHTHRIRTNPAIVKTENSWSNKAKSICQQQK

[5] = molecular target: T5, MBP-fused PGC-1α deletion mutant, amino acids 1-200 (N-terminal) (mouse) (UniProt O70343); assay: pull-down; MBP-fused PGC-1α deletion mutants on amylose resin incubated with His-tagged necdin (200 ng) at 4 °C for 30 min in 20 mM Tris-HCl pH 7.5, 200 mM NaCl, 1 mM EDTA; eluted with 20 mM maltose, blotted with anti-necdin antibody; both purified
T5 sequence: T4 sequence

B1: PGC-1α (peroxisome proliferator-activated receptor γ coactivator-1α) (protein, UniProt O70343 1-797)
chain: T3 sequence
binding [1]: binds

B2: PGC-1α, full-length mouse (expressed in transfected HEK293A cells) (protein, UniProt O70343 1-797)
chain: T3 sequence
binding [2]: binds

B3: necdin (expressed in transfected HEK293A cells) (protein, UniProt P25233 1-325)
chain: T1 sequence
binding [3]: binds
binding [4]: binds

B4: His-tagged necdin (protein, UniProt P25233 1-325)
chain: T1 sequence
binding [5]: binds
